Measurements reported in the supplement of paper PMC4604168 (melanoma cell lines).
This is one part of the list. Repeats are few or missing, and single values can be far off.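 Imaging used 1,536-well plates; nuclei positive for cleaved PARP by antibody were divided by total DNA-stained nuclei to yield the apoptosis fraction. Doses for screening kept most cells viable, and cell lines differ markedly in resting and induced cleaved-PARP levels.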

The molecules below were run on IPC-298 (assay: cleaved PARP positive nuclei fraction relative to DMSO control; melanoma cells; higher = more apoptosis). Conditions: library dose: low library concentration; 72 h.

SMILES	cleaved PARP positive nuclei fraction [%]
C=CCn1c(=O)c2cnc(Nc3ccc(N4CCN(C)CC4)cc3)nc2n1-c1cccc(C(C)(C)O)n1 + O=S(=O)(c1ccccc1)N(CC(F)(F)F)c1ccc(C(O)(C(F)(F)F)C(F)(F)F)cc1 [T0901317] (first compound 0.02 µM, partner dose 1.4 µM)	48
O=C(Nc1cccc(Cl)c1)Nc1ncc(CCNc2ncnc3ccsc23)s1 + COc1cc(N2CCC(N3CCN(C)CC3)CC2)ccc1Nc1ncc(Cl)c(Nc2ccccc2S(=O)(=O)C(C)C)n1 [NVP-TAE684] (first compound 0.0008 µM, partner dose 0.08 µM)	28.3
C[C@]1(c2nc3c(C(N)=O)cccc3[nH]2)CCCN1 [Veliparib] + COc1cc2ncnc(Nc3ccc(Oc4ccccc4)cc3)c2cc1OC [SrcI1] (first compound 1.4 µM, partner dose 2 µM)	119
Cn1c(Nc2ccc(C(F)(F)F)cc2)nc2cc(Oc3ccnc(-c4ncc(C(F)(F)F)[nH]4)c3)ccc21 + COc1ccc(COc2ccc(Cc3cnc(N)nc3N)cc2OC)cc1 [GW2580] (first compound 0.08 µM, partner dose 1 µM)	202
COCC[n+]1c2c(n(Cc3cnccn3)c1C)C(=O)c1ccccc1C2=O + COc1ccc(COc2ccc(Cc3cnc(N)nc3N)cc2OC)cc1 [GW2580] (first compound 0.0004 µM, partner dose 1 µM)	145
Cc1ccc(NC(=O)c2cccc(N(C)C)c2)cc1NC(=O)c1ccc(O)cc1 + COC(=O)c1sccc1S(=O)(=O)Nc1ccc(Nc2ccccc2)cc1OC [GSK0660] (first compound 2 µM, partner dose 1 µM)	71.9
COCC[n+]1c2c(n(Cc3cnccn3)c1C)C(=O)c1ccccc1C2=O + CC(C)CCN1c2nc(Nc3cc(F)c(O)c(F)c3)ncc2N(C)C(=O)C1C [BID1870] (first compound 0.0004 µM, partner dose 0.2 µM)	71.9
CC(C)(C)c1cnc(CSc2cnc(NC(=O)C3CCNCC3)s2)o1 + Cc1cc([N+](=O)[O-])ccc1NS(=O)(=O)c1cc(Cl)ccc1Cl [FH535] (first compound 0.01 µM, partner dose 1 µM)	63.8
Cc1ccc(NC(=O)c2cccc(N(C)C)c2)cc1NC(=O)c1ccc(O)cc1 + CCCCCCCCCCCC1=C(O)C(=O)C=C(O)C1=O [Embelin] (first compound 2 µM, partner dose 1.2 µM)	76.9
Cc1ccc(NC(=O)c2cccc(N(C)C)c2)cc1NC(=O)c1ccc(O)cc1 + COc1cc(N2CCC(N3CCN(C)CC3)CC2)ccc1Nc1ncc(Cl)c(Nc2ccccc2S(=O)(=O)C(C)C)n1 [NVP-TAE684] (first compound 2 µM, partner dose 0.08 µM)	44.5
Cn1cncc1[C@@](N)(c1ccc(Cl)cc1)c1ccc2c(c1)c(-c1cccc(Cl)c1)cc(=O)n2C [tipifarnib] + CCc1ccc(CCOc2ccc(CC3SC(=O)NC3=O)cc2)nc1 [pioglitazone] (first compound 0.01 µM, partner dose 2 µM)	130
O=C(CCCCCCC(=O)Nc1ccccc1)NO [vorinostat] + COc1cc(N2CCC(N3CCN(C)CC3)CC2)ccc1Nc1ncc(Cl)c(Nc2ccccc2S(=O)(=O)C(C)C)n1 [NVP-TAE684] (first compound 0.08 µM, partner dose 0.08 µM)	110
O=C(Nc1cccc(Cl)c1)Nc1ncc(CCNc2ncnc3ccsc23)s1 + COC(=O)c1sccc1S(=O)(=O)Nc1ccc(Nc2ccccc2)cc1OC [GSK0660] (first compound 0.0008 µM, partner dose 1 µM)	33.3
C=CCn1c(=O)c2cnc(Nc3ccc(N4CCN(C)CC4)cc3)nc2n1-c1cccc(C(C)(C)O)n1 + CC(C)CCN1c2nc(Nc3cc(F)c(O)c(F)c3)ncc2N(C)C(=O)C1C [BID1870] (first compound 0.02 µM, partner dose 0.2 µM)	81.8
CO[C@@H]1[C@H](N(C)C(=O)c2ccccc2)C[C@H]2O[C@]1(C)n1c3ccccc3c3c4c(c5c6ccccc6n2c5c31)C(=O)NC4 [Midostaurin] + O=S(=O)(c1ccccc1)N(CC(F)(F)F)c1ccc(C(O)(C(F)(F)F)C(F)(F)F)cc1 [T0901317] (first compound 0.08 µM, partner dose 1.4 µM)	167
Nc1cccc2c1CN(C1CCC(=O)NC1=O)C2=O (configuration not stated) [lenalidomide] + COC(=O)c1sccc1S(=O)(=O)Nc1ccc(Nc2ccccc2)cc1OC [GSK0660] (first compound 1 µM, partner dose 1 µM)	41

SMILES	cleaved PARP positive nuclei fraction [%]
O=C(Nc1cccc(Cl)c1)Nc1ncc(CCNc2ncnc3ccsc23)s1 + CCc1ccc(CCOc2ccc(CC3SC(=O)NC3=O)cc2)nc1 [pioglitazone] (first compound 0.0008 µM, partner dose 2 µM)	29.1
COCC[n+]1c2c(n(Cc3cnccn3)c1C)C(=O)c1ccccc1C2=O + O=c1cc(-c2cccc3c2Sc2ccccc2S3)oc(N2CCOCC2)c1 [KU55933] (first compound 0.0004 µM, partner dose 1 µM)	146
Nc1cccc2c1CN(C1CCC(=O)NC1=O)C2=O (configuration not stated) [lenalidomide] + COc1ccc(-c2ccc3c(N4CCOCC4)nc(N4C[C@@H](C)O[C@@H](C)C4)nc3n2)cc1CO [KU0063794] (first compound 1 µM, partner dose 0.02 µM)	130
NC(=O)Nc1cc(-c2cccc(F)c2)sc1C(=O)N[C@H]1CCCNC1 + Cn1cc(/C=C2\C(=O)Nc3cccnc32)c2ccccc21 [GW441756] (first compound 0.02 µM, partner dose 0.4 µM)	60.5
COc1cc(Nc2ncc(F)c(Nc3ccc4c(n3)NC(=O)C(C)(C)O4)n2)cc(OC)c1OC [Tamatinib] + COc1cc(N2CCC(N3CCN(C)CC3)CC2)ccc1Nc1ncc(Cl)c(Nc2ccccc2S(=O)(=O)C(C)C)n1 [NVP-TAE684] (first compound 0.4 µM, partner dose 0.08 µM)	243
NC(=O)Nc1cc(-c2cccc(F)c2)sc1C(=O)N[C@H]1CCCNC1 + CCN(CC)CCCCNc1ncc2cc(-c3cc(OC)cc(OC)c3)c(NC(=O)NC(C)(C)C)nc2n1 [PD173074] (first compound 0.02 µM, partner dose 0.1 µM)	104
O=C(CCCCCCC(=O)Nc1ccccc1)NO [vorinostat] + CCCCCCCCCCCC1=C(O)C(=O)C=C(O)C1=O [Embelin] (first compound 0.08 µM, partner dose 1.2 µM)	56.5
O=C(Nc1cccc(Cl)c1)Nc1ncc(CCNc2ncnc3ccsc23)s1 + COc1ccc(-c2ccc3c(N4CCOCC4)nc(N4C[C@@H](C)O[C@@H](C)C4)nc3n2)cc1CO [KU0063794] (first compound 0.0008 µM, partner dose 0.02 µM)	87.3
Cc1nc(Nc2ncc(C(=O)Nc3c(C)cccc3Cl)s2)cc(N2CCN(CCO)CC2)n1 [dasatanib] + CCN(CC)CCCCNc1ncc2cc(-c3cc(OC)cc(OC)c3)c(NC(=O)NC(C)(C)C)nc2n1 [PD173074] (first compound 0.004 µM, partner dose 0.1 µM)	215
CC1(C)NC(=O)N(c2ccc([N+](=O)[O-])c(C(F)(F)F)c2)C1=O [nilutamide] + COc1ccc(COc2ccc(Cc3cnc(N)nc3N)cc2OC)cc1 [GW2580] (first compound 1 µM, partner dose 1 µM)	62.2
COCC[n+]1c2c(n(Cc3cnccn3)c1C)C(=O)c1ccccc1C2=O + CCc1ccc(CCOc2ccc(CC3SC(=O)NC3=O)cc2)nc1 [pioglitazone] (first compound 0.0004 µM, partner dose 2 µM)	130
O=C(CCCCCCC(=O)Nc1ccccc1)NO [vorinostat] + COc1ccc(-c2ccc3c(N4CCOCC4)nc(N4C[C@@H](C)O[C@@H](C)C4)nc3n2)cc1CO [KU0063794] (first compound 0.08 µM, partner dose 0.02 µM)	173
COc1cc(Nc2ncc(F)c(Nc3ccc4c(n3)NC(=O)C(C)(C)O4)n2)cc(OC)c1OC [Tamatinib] + O=S(=O)(c1ccccc1)N(CC(F)(F)F)c1ccc(C(O)(C(F)(F)F)C(F)(F)F)cc1 [T0901317] (first compound 0.4 µM, partner dose 1.4 µM)	89.9
NC(=O)Nc1cc(-c2cccc(F)c2)sc1C(=O)N[C@H]1CCCNC1 + O=S(=O)(c1ccccc1)N(CC(F)(F)F)c1ccc(C(O)(C(F)(F)F)C(F)(F)F)cc1 [T0901317] (first compound 0.02 µM, partner dose 1.4 µM)	104
Cn1nnc2c(C(N)=O)ncn2c1=O [temozolomide] + COc1ccc(-c2ccc3c(N4CCOCC4)nc(N4C[C@@H](C)O[C@@H](C)C4)nc3n2)cc1CO [KU0063794] (first compound 2 µM, partner dose 0.02 µM)	110
Nc1cccc2c1CN(C1CCC(=O)NC1=O)C2=O (configuration not stated) [lenalidomide] + c1cc(-c2cnn3cc(-c4ccc(OCCN5CCCCC5)cc4)cnc23)ccn1 [Dorsomorphin] (first compound 1 µM, partner dose 0.4 µM)	80.5

Exported with each value named: part of the list above
O=C(CCCCCCC(=O)Nc1ccccc1)NO [vorinostat] + CCCCCCCCCCCC1=C(O)C(=O)C=C(O)C1=O [Embelin] (first compound 0.08 µM, partner dose 1.2 µM)
  cleaved PARP positive nuclei fraction [%]: 56.5
O=C(Nc1cccc(Cl)c1)Nc1ncc(CCNc2ncnc3ccsc23)s1 + COc1ccc(-c2ccc3c(N4CCOCC4)nc(N4C[C@@H](C)O[C@@H](C)C4)nc3n2)cc1CO [KU0063794] (first compound 0.0008 µM, partner dose 0.02 µM)
  cleaved PARP positive nuclei fraction [%]: 87.3
